# From the supplement of paper PMC3334620
# Whole data set: some 33,000 sequences, median “E-score (-0.5 to 0.5)” near -0.0034, cut for the highest 2% near 0.25. The list shows a part of the results.
# Target: T1, Yap3 (UniProt P38749)
# T1 sequence: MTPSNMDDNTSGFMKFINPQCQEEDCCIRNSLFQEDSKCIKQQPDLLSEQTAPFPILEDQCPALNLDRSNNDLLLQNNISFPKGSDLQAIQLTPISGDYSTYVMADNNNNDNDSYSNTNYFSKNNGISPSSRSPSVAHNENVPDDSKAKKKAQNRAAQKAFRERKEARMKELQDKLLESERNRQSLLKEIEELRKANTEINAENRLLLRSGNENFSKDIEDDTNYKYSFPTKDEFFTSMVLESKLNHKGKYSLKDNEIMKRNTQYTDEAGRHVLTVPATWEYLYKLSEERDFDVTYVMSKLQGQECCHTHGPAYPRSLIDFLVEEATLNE
# Experiment: PBM E-score (8-mer binding enrichment) (E-score (-0.5 to 0.5)); higher = stronger / more preferred TF binding
# Conditions: protein concentration: 100 nM; construct: GST-full length
# Summary of the method: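 Detection of bound protein used fluorescent anti-GST, with scans normalised by masliner. The proteins were GST-tagged yeast transcription factors applied at about 100-200 nM to universal all-10-mer Agilent arrays made double-stranded by primer extension. Each ungapped eight-base word, pooled with its reverse complement, was scored with an E-score from the Universal PBM Analysis Suite.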
row,Sequence,PBM E-score
1,GGGGAGTA,-0.116
2,ATACTTGG,-0.0233
3,AATGGGTG,0.0388
4,ATCTATGG,-0.182
5,CATTCCCG,0.13
6,CATTAACC,0.0349
7,ATCAGTCG,0.195
8,CCTACGTC,-0.0725
9,ATGAATTA,0.196
10,ACTGTTCT,0.153
11,AAAACCAA,0.0105
12,ATTCACTC,-0.0603
13,CGGGGGAA,-0.215
14,AGTAGGAA,0.0161
15,AGTAGGTC,-0.147
16,CCAGGTGC,-0.122
17,AGGTCCCA,-0.0727
18,CCGGTCCA,-0.26
19,AGCTTAGG,0.0538
20,CAGGTCCG,-0.194
21,ACCTAGAC,-0.229
22,CTCCAAAC,0.0359
23,CTAGTTCC,0.191
24,GGTGTGCA,-0.183
25,GTGAACCA,0.153

row,Sequence,PBM E-score
1,TACTCCTA,0.0235
2,CTCACCTA,0.00489
3,CACGTTTA,0.0232
4,GAGAGTCC,-0.127
5,CTTTATGA,0.0453
6,AAGACAGG,0.0491
7,ACCTCGAT,0.115
8,CGACGCCA,-0.143
9,AGTGTCCA,-0.0245
10,AATTGTAG,0.0862
11,CCGCGAAG,-0.125
12,AAAAGCGG,-0.0475
13,TCCGCGAA,0.086
14,AGAACTGC,-0.131
15,AGATCACG,0.128
16,GACAGTTA,0.16
17,AAATAAAG,0.226
18,ATCACGAA,0.123
19,TCACTAAA,0.121
20,CGACTAAA,0.0269
21,AGCACAGG,-0.0469
22,CATCATCC,0.0479
23,AATGTACA,0.156
24,CCTAGTAA,-0.137
25,CCATGCGC,-0.0427

# A different layout for part of the listing above:
row | Sequence | PBM E-score
13 | TCCGCGAA | 0.086
14 | AGAACTGC | -0.131
15 | AGATCACG | 0.128
16 | GACAGTTA | 0.16
17 | AAATAAAG | 0.226
18 | ATCACGAA | 0.123
19 | TCACTAAA | 0.121

# (list continues)

row,Sequence,PBM E-score
1,AATTGGAC,0.17
2,AGGACCCA,-0.277
3,ACGCAGTC,-0.356
4,GGCTACGA,-0.0605
5,CTCGACCA,-0.132
6,AACTATAG,0.0554
7,GGTGCACC,-0.145
8,CAGAATCA,0.0924
9,ACCTGACT,0.0961
10,GCCGAATA,0.115
11,GCACTTAA,-0.00582
12,AAACGGAT,0.277
13,CACGCCTC,-0.079
14,CCGAGGCA,-0.117
15,ATTGCTCG,0.0689
16,CTTTCAAA,0.166
17,CCGTCTAC,0.0811
18,ACGTACAT,0.169
19,ATTGGTGG,0.159
20,CCGTGAAG,-0.167
21,GTCATAGA,0.097
22,CTTTCTGC,0.134
23,GTTCTTAA,0.099
24,GCAGTCCC,-0.274
25,GGGGTGAA,-0.078

row,Sequence,PBM E-score
1,CATCGGTA,0.0494
2,CTTAATCC,-0.0154
3,AGCCACAA,0.0324
4,AAGTCACG,-0.0562
5,ATAATCCC,0.0012
6,ATAACCAA,0.243
7,CAAAATCC,0.175
8,CGTTTAAA,0.0721
9,GAAGACAC,0.0883
10,CCGATGGA,-0.128
11,GACCTCGC,-0.213
12,CAGTTTAC,-0.0295
13,AGTTTAGC,0.0635
14,AATGCACG,-0.00779
15,CACCAATG,0.0776
16,AGAAAAGA,0.0128
17,GAACTCGA,0.0106
18,TCTACGCA,0.00875
19,AGAGTCGG,-0.115
20,CGGTCGGC,-0.244
21,AGAGTTAA,0.0136
22,GAACCCGC,-0.189
23,AACGAGGA,0.0742
24,GGAATTCC,-0.111
25,AAAAATCT,0.118

row,Sequence,PBM E-score
1,TCTAAGCA,0.00349
2,AATAGTGG,0.123
3,GGATGTGA,0.0087
4,GCAACCGA,-0.116
5,CGAAGTTC,-0.00893
6,AACTTGCC,-0.0565
7,AACCCGTG,-0.345
8,ATGCCTAC,-0.122
9,GTTTGTCA,0.133
10,AGAATTAG,0.0612
11,ATAATCTC,0.17
12,CCTGACTA,0.202
13,TGAAGCAA,-0.0816
14,ATGCGAAC,-0.0417
15,GGTCTTTA,0.01
16,AACCTGCT,-0.0536
17,CCGCGCTC,0.0144
18,CATTTACG,0.0357
19,ATCGTTAG,0.0757
20,AATCGAGA,0.0486
21,CGTAGCGC,-0.167
22,GAATCGCA,-0.158
23,GCTTCTTA,-0.0834
24,ATTTCGAG,0.141
25,ATACGGAG,0.0911

row,Sequence,PBM E-score
1,CGTAGTAG,-0.0666
2,AATAGCAA,0.151
3,ATGCGTTA,0.0735
4,GCCGTAGA,0.0616
5,GGTAAGTA,0.0243
6,AAAAGCAA,0.222
7,ATCCCGAC,0.0397
8,ATTGGTAG,0.0436
9,AGGGGCAG,-0.194
10,ACAAGACA,0.0972
11,ACCGATAC,0.00349
12,AATACAAA,0.259
13,ACGCGGTG,-0.168
14,GAAGATGC,-0.0796
15,CCGATATC,0.0559
16,AAGGGCTG,-0.267
17,GGAGGGAA,-0.173
18,GAACCTAA,0.0358
19,CGCCAAAC,-0.0374
20,GGCGATCA,-0.179
21,AGATTGGA,0.0555
22,CCTATACC,-0.0683
23,CAGACAGG,-0.236
24,AATGCCGT,0.217
25,AGGACGAA,0.0409

row,Sequence,PBM E-score
1,CTCGCCCA,-0.0854
2,TAAAGCAA,0.137
3,CATTGCAA,0.0671
4,AGCCTTCA,-0.0428
5,CTAGTGAC,-0.116
6,TGCAGCCA,0.0614
7,AATCACTA,0.077
8,ATTGGGGA,-0.104
9,CATGAGCC,-0.128
10,CGCAGTAG,-0.12
11,CCATAGCG,-0.0496
12,ATTGTCCG,0.216
13,AATTGCCA,0.0936
14,CTCGATGA,0.0654
15,GGTACAAA,0.0676
16,TATCACCA,0.0589
17,AGCCAGCT,-0.102
18,AACACCTC,-0.0135
19,CGCATCGA,0.0858
20,CTAGAGGC,-0.141
21,GTGCCGGA,-0.167
22,CCGTCTCG,-0.0455
23,GGACGGGA,-0.213
24,GAGTAAGA,0.0687
25,AACCACTA,0.0336

# Part of the list above, with tabs.
row	Sequence	PBM E-score
2	TAAAGCAA	0.137
7	AATCACTA	0.077
13	AATTGCCA	0.0936
18	AACACCTC	-0.0135

# (continued)

row,Sequence,PBM E-score
1,GCTTAACC,-0.00627
2,ACGATCGA,0.121
3,AGTGCAGC,-0.0223
4,ATCACGGC,0.0643
5,CGCTTTTA,0.115
6,GTTCCTGA,-0.119
7,AGTGACGC,-0.0717
8,AATATGAT,0.279
9,ACCTGGAG,-0.0509
10,TACTGCAA,0.101
11,CGCATAAC,0.183
12,ATTACGTC,0.33
13,TATTCCGA,0.189
14,AACTTGCT,-0.0686
15,CACGATTC,0.0883
16,AACAAGGC,0.0204
17,CGAAACAC,0.0611
18,GACTTCCC,-0.173
19,CAGGCCTC,-0.125
20,GCTCGACA,-0.1
21,ACAAGTCA,-0.0818
22,AAATGCAT,0.125
23,ATGACAGG,-0.0381
24,AGATGCTA,-0.0872
25,ACACGTGG,-0.047

# 3 entries from above, bar-delimited.
row | Sequence | PBM E-score
10 | TACTGCAA | 0.101
11 | CGCATAAC | 0.183
12 | ATTACGTC | 0.33

# The list continues.

row,Sequence,PBM E-score
1,CTGTCGGA,-0.035
2,GGCATAAC,0.0534
3,AACATGGG,0.105
4,TGCAGGCA,-0.188
5,TACAGTGA,0.163
6,AGCAAGGC,-0.0698
7,CCAATCGC,0.131
8,ACCCTTGG,-0.251
9,TCCAGCCA,-0.157
10,TCAGGAAA,-0.0413
11,ATATTGGA,0.171
12,AAGTGATC,0.0526
13,CTCGGTCA,-0.0148
14,CCGAGCCA,-0.0811
15,ACCCGGGG,-0.208
16,TAGTGGGA,-0.0516
17,GATTACGC,0.108
18,AATTTAAT,0.261
19,GCGAGAGC,-0.189
